Holding throughout (test): affinity purification with mass spectrometry; HEK293T co-transfected with EGFP-tagged SEPT6 or SEPT6-4KR and RID-WT or RID-CA for 20 h; lysis in 1% Triton X-100, 150 mM NaCl, 50 mM Tris-HCl pH 7.4; anti-EGFP nanobody agarose beads; in-gel digestion; label-free quantification against vector control, three biological replicates
Test [1] addresses T1, EGFP-tagged SEPT6 (co-expressed with inactive RID-CA) (human) (UniProt Q14141).
T1 sequence: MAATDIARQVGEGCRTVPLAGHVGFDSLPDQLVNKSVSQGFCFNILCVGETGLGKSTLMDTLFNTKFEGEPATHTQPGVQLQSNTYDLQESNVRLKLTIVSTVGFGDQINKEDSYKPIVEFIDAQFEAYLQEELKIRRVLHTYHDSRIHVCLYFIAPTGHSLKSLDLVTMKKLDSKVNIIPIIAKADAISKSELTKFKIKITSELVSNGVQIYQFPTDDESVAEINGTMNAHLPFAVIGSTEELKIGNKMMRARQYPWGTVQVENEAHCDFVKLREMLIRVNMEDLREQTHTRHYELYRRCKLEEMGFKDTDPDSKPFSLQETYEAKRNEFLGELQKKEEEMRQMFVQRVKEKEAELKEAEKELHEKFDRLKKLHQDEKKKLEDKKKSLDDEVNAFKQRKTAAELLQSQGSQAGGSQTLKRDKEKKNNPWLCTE

Amino acid sequences for entries named in this document (tags omitted).
UniProt Q9UH03: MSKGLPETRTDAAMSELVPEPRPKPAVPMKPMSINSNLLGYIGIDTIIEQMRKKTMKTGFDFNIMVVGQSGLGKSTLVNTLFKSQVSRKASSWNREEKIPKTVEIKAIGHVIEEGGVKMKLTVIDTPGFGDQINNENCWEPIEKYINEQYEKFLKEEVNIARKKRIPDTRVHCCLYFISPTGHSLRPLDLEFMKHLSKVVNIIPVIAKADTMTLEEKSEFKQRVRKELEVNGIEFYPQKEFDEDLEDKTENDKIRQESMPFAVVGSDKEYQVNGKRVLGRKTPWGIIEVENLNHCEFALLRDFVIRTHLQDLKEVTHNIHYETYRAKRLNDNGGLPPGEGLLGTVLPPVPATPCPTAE

Test [2] deals with EGFP-tagged SEPT6 quadruple mutant SEPT6-4KR (co-expressed with RID-WT) (human) (UniProt Q14141).
Test [3] has as its target T2, EGFP-tagged SEPT6 (co-expressed with inactive RID-CA) (human), Q14141.
T2 chain: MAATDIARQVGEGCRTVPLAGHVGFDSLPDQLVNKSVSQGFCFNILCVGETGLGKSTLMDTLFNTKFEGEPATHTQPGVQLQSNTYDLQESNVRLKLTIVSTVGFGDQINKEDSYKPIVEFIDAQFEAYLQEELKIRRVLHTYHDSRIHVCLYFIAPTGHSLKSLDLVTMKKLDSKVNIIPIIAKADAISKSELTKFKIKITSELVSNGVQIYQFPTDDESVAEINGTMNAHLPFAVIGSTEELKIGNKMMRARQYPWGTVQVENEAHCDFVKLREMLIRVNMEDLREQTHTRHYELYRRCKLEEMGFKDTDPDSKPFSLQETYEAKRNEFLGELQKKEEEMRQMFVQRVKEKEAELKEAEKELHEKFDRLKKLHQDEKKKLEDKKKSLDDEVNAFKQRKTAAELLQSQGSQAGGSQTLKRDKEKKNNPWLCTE
The note with it: remark: other sources report otherwise.

Results are given in words; binding and its absence hold for the method and conditions named. In cells and extracts the contact can be indirect. A yes stands for co-enrichment or nearness to the bait. Other partners may have been found. For some of these results: Sequences can lack the tags named with a protein.

For “endogenous SEPT3 (from UniProt Q9UH03 1-358)”, the binding result in test [1] and in test [2] was “binds” in each case.

B1: endogenous SEPT11 (protein, UniProt Q9NVA2 1-429)
chain: MAVAVGRPSNEELRNLSLSGHVGFDSLPDQLVNKSTSQGFCFNILCVGETGIGKSTLMDTLFNTKFESDPATHNEPGVRLKARSYELQESNVRLKLTIVDTVGFGDQINKDDSYKPIVEYIDAQFEAYLQEELKIKRSLFNYHDTRIHACLYFIAPTGHSLKSLDLVTMKKLDSKVNIIPIIAKADTIAKNELHKFKSKIMSELVSNGVQIYQFPTDEETVAEINATMSVHLPFAVVGSTEEVKIGNKMAKARQYPWGVVQVENENHCDFVKLREMLIRVNMEDLREQTHTRHYELYRRCKLEEMGFKDTDPDSKPFSLQETYEAKRNEFLGELQKKEEEMRQMFVMRVKEKEAELKEAEKELHEKFDLLKRTHQEEKKKVEDKKKELEEEVNNFQKKKAAAQLLQSQAQQSGAQQTKKDKDKKNASFT
Turning to B1, the binding result in test [1] and in test [2] was “binds” in each case.

B2: endogenous SEPT10, Q9P0V9 1-454 (protein)
chain: MASSEVARHLLFQSHMATKTTCMSSQGSDDEQIKRENIRSLTMSGHVGFESLPDQLVNRSIQQGFCFNILCVGETGIGKSTLIDTLFNTNFEDYESSHFCPNVKLKAQTYELQESNVQLKLTIVNTVGFGDQINKEESYQPIVDYIDAQFEAYLQEELKIKRSLFTYHDSRIHVCLYFISPTGHSLKTLDLLTMKNLDSKVNIIPVIAKADTVSKTELQKFKIKLMSELVSNGVQIYQFPTDDDTIAKVNAAMNGQLPFAVVGSMDEVKVGNKMVKARQYPWGVVQVENENHCDFVKLREMLICTNMEDLREQTHTRHYELYRRCKLEEMGFTDVGPENKPVSVQETYEAKRHEFHGERQRKEEEMKQMFVQRVKEKEAILKEAERELQAKFEHLKRLHQEERMKLEEKRRLLEEEIIAFSKKKATSEIFHSQSFLATGSNLRKDKDRKNSNFL
Regarding B2, the binding result in test [3] is reported as “binds”.

B3: endogenous SEPT10 (protein, UniProt Q9P0V9 1-454)
chain: MASSEVARHLLFQSHMATKTTCMSSQGSDDEQIKRENIRSLTMSGHVGFESLPDQLVNRSIQQGFCFNILCVGETGIGKSTLIDTLFNTNFEDYESSHFCPNVKLKAQTYELQESNVQLKLTIVNTVGFGDQINKEESYQPIVDYIDAQFEAYLQEELKIKRSLFTYHDSRIHVCLYFISPTGHSLKTLDLLTMKNLDSKVNIIPVIAKADTVSKTELQKFKIKLMSELVSNGVQIYQFPTDDDTIAKVNAAMNGQLPFAVVGSMDEVKVGNKMVKARQYPWGVVQVENENHCDFVKLREMLICTNMEDLREQTHTRHYELYRRCKLEEMGFTDVGPENKPVSVQETYEAKRHEFHGERQRKEEEMKQMFVQRVKEKEAILKEAERELQAKFEHLKRLHQEERMKLEEKRRLLEEEIIAFSKKKATSEIFHSQSFLATGSNLRKDKDRKNSNFL
On to B3, for which, in test [2], the binding result is on record as “binds”.

B4: endogenous SEPT5 (protein, UniProt Q99719 1-369)
chain: MSTGLRYKSKLATPEDKQDIDKQYVGFATLPNQVHRKSVKKGFDFTLMVAGESGLGKSTLVHSLFLTDLYKDRKLLSAEERISQTVEILKHTVDIEEKGVKLKLTIVDTPGFGDAVNNTECWKPITDYVDQQFEQYFRDESGLNRKNIQDNRVHCCLYFISPFGHGLRPVDVGFMKALHEKVNIVPLIAKADCLVPSEIRKLKERIREEIDKFGIHVYQFPECDSDEDEDFKQQDRELKESAPFAVIGSNTVVEAKGQRVRGRLYPWGIVEVENQAHCDFVKLRNMLIRTHMHDLKDVTCDVHYENYRAHCIQQMTSKLTQDSRMESPIPILPLPTPDAETEKLIRMKDEELRRMQEMLQRMKQQMQDQ
On to B4, for which the binding entry in test [1] and in test [2] was “binds” throughout.

B5: endogenous SEPT8, Q92599 1-483 (protein)
chain: MAATDLERFSNAEPEPRSLSLGGHVGFDSLPDQLVSKSVTQGFSFNILCVGETGIGKSTLMNTLFNTTFETEEASHHEACVRLRPQTYDLQESNVQLKLTIVDAVGFGDQINKDESYRPIVDYIDAQFENYLQEELKIRRSLFDYHDTRIHVCLYFITPTGHSLKSLDLVTMKKLDSKVNIIPIIAKADTISKSELHKFKIKIMGELVSNGVQIYQFPTDDEAVAEINAVMNAHLPFAVVGSTEEVKVGNKLVRARQYPWGVVQVENENHCDFVKLREMLIRVNMEDLREQTHSRHYELYRRCKLEEMGFQDSDGDSQPFSLQETYEAKRKEFLSELQRKEEEMRQMFVNKVKETELELKEKERELHEKFEHLKRVHQEEKRKVEEKRRELEEETNAFNRRKAAVEALQSQALHATSQQPLRKDKDKKNRSDIGAHQPGMSLSSSKVMMTKASVEPLNCSSWWPAIQCCSCLVRDATWREGFL
For B5, the binding entry in test [3] was “binds”.

B6: endogenous SEPT8 (protein, UniProt Q92599 1-483)
chain: MAATDLERFSNAEPEPRSLSLGGHVGFDSLPDQLVSKSVTQGFSFNILCVGETGIGKSTLMNTLFNTTFETEEASHHEACVRLRPQTYDLQESNVQLKLTIVDAVGFGDQINKDESYRPIVDYIDAQFENYLQEELKIRRSLFDYHDTRIHVCLYFITPTGHSLKSLDLVTMKKLDSKVNIIPIIAKADTISKSELHKFKIKIMGELVSNGVQIYQFPTDDEAVAEINAVMNAHLPFAVVGSTEEVKVGNKLVRARQYPWGVVQVENENHCDFVKLREMLIRVNMEDLREQTHSRHYELYRRCKLEEMGFQDSDGDSQPFSLQETYEAKRKEFLSELQRKEEEMRQMFVNKVKETELELKEKERELHEKFEHLKRVHQEEKRKVEEKRRELEEETNAFNRRKAAVEALQSQALHATSQQPLRKDKDKKNRSDIGAHQPGMSLSSSKVMMTKASVEPLNCSSWWPAIQCCSCLVRDATWREGFL
In the case of B6, in test [2], the binding result is on record as “binds”.

For the origin of these results see paper PMC10924143.
